Data as given in the supplement of paper PMC10849652.
This is one part of the list.

Sequences of proteins named here, by UniProt entry; tags and fusion partners are left off. A change or cut given only in a name is not applied to a line headed by its entry.
UniProt Q9H4H8: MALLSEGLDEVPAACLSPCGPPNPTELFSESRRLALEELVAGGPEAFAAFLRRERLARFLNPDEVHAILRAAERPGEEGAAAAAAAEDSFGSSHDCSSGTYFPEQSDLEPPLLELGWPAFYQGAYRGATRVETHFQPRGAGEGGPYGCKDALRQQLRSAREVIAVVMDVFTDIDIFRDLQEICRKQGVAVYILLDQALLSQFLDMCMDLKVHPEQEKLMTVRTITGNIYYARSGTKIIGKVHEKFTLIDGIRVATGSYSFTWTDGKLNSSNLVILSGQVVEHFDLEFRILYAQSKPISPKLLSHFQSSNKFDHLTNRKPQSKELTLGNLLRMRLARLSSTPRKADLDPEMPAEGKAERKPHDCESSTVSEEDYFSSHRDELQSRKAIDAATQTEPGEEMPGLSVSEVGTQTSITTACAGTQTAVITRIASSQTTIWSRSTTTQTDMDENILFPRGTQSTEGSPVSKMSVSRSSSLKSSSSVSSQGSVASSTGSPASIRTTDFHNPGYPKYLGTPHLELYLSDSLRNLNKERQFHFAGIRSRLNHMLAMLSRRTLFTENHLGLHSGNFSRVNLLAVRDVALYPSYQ
UniProt Q01469, whole entry, looked up: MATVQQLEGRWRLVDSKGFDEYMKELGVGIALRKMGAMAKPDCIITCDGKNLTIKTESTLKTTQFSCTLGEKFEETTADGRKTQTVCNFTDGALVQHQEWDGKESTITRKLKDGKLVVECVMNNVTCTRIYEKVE
UniProt Q9NUQ9: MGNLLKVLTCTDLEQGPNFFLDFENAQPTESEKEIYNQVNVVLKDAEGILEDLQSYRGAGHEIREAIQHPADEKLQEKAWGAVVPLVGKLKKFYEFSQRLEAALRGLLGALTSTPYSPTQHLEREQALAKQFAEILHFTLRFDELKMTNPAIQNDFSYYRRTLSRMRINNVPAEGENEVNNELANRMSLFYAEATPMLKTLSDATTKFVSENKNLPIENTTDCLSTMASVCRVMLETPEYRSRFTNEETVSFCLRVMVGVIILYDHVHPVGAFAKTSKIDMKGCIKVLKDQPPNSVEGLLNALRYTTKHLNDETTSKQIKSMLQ
UniProt Q6P2I3: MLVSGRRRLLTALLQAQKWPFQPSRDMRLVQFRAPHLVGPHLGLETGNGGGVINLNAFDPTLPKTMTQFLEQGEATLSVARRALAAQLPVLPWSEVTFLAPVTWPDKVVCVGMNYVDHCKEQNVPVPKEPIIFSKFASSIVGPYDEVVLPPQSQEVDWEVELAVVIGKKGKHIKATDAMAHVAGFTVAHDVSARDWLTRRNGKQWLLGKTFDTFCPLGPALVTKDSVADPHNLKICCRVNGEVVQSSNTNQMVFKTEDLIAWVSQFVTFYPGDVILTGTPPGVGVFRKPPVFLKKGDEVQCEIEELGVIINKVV
UniProt Q8TAV0: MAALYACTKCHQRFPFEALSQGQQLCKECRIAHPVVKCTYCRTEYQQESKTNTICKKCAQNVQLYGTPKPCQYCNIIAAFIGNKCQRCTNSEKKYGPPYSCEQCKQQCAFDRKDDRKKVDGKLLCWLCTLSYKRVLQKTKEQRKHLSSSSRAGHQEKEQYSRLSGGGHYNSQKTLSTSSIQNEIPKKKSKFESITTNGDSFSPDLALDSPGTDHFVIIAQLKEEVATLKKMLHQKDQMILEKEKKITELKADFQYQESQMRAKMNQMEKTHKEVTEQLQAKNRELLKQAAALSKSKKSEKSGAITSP
UniProt Q96B26, whole entry, looked up: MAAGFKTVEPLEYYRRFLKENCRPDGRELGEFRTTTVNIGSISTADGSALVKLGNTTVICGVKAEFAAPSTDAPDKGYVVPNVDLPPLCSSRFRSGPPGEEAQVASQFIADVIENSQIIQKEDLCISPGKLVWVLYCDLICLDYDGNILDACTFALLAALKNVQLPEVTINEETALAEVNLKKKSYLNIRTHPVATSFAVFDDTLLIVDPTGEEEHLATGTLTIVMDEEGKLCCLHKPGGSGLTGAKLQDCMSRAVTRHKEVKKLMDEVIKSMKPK
UniProt Q9NSI2: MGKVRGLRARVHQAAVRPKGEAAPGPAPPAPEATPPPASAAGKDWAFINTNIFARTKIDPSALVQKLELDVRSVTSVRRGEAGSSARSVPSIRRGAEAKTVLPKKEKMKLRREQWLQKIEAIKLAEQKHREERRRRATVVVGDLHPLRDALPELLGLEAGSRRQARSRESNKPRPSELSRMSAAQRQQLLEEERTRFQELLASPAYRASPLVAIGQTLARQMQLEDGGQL
UniProt Q96A26: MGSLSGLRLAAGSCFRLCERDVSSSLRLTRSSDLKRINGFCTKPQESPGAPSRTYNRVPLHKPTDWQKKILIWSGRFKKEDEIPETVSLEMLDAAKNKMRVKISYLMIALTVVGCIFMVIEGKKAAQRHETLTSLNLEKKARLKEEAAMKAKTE
UniProt O00471: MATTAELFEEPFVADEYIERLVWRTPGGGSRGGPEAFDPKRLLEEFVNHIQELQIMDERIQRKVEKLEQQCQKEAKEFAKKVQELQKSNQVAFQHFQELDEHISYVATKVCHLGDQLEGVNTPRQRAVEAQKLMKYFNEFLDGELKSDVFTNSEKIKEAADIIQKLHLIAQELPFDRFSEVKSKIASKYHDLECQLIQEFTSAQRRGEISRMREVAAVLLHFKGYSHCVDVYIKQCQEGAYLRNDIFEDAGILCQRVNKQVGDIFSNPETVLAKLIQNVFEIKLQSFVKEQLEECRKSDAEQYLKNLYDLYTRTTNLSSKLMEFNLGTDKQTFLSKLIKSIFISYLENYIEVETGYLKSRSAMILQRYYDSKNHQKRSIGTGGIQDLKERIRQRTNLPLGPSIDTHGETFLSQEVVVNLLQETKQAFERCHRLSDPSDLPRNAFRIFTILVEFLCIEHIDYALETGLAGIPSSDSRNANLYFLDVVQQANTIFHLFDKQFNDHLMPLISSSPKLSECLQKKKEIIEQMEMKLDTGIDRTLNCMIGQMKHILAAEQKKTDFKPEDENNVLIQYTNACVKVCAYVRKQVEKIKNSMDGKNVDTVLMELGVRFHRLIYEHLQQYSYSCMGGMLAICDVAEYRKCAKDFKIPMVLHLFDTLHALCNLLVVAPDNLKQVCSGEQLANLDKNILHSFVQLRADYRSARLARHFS
UniProt Q9Y5Q0: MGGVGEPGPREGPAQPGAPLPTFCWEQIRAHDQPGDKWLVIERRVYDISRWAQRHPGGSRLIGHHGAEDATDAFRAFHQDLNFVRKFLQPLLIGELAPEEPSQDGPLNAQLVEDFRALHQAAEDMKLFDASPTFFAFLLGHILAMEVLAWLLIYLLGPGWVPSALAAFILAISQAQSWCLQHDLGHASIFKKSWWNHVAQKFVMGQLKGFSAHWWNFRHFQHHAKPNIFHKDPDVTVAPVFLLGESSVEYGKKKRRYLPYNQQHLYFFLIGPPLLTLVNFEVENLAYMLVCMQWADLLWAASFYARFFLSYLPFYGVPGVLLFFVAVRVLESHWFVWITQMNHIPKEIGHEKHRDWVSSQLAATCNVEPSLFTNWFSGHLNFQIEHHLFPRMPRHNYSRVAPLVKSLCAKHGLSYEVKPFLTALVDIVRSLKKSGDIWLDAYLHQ
UniProt Q6P587: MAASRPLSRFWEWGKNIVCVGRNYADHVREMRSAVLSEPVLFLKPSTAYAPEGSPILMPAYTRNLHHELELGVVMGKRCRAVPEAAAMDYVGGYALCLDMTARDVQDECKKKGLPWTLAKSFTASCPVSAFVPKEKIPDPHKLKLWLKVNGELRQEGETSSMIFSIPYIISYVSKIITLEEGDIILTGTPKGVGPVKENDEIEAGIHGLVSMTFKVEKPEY
UniProt Q13158: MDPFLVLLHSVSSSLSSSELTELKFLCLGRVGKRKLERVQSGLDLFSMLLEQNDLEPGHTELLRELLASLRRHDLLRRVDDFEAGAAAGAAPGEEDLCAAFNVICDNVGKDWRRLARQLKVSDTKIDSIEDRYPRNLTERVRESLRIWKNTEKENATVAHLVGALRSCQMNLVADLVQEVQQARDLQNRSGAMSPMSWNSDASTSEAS
UniProt Q9UNN5: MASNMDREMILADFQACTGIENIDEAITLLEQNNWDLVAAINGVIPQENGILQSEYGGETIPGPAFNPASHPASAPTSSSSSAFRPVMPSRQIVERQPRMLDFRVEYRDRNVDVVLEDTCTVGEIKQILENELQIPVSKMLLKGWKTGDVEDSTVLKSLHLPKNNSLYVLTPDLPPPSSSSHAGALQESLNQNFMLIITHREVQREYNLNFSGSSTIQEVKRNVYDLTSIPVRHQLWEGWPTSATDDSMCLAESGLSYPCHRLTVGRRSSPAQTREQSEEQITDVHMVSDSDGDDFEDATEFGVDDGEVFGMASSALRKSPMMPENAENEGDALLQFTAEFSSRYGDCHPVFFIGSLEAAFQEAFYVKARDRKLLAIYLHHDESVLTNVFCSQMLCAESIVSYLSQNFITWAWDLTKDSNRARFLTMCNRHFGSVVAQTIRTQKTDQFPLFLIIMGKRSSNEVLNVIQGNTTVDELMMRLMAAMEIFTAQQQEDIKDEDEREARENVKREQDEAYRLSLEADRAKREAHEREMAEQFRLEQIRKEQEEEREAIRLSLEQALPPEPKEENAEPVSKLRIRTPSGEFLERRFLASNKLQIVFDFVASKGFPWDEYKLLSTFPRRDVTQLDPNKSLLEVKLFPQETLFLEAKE
UniProt Q9UI08, whole entry, looked up: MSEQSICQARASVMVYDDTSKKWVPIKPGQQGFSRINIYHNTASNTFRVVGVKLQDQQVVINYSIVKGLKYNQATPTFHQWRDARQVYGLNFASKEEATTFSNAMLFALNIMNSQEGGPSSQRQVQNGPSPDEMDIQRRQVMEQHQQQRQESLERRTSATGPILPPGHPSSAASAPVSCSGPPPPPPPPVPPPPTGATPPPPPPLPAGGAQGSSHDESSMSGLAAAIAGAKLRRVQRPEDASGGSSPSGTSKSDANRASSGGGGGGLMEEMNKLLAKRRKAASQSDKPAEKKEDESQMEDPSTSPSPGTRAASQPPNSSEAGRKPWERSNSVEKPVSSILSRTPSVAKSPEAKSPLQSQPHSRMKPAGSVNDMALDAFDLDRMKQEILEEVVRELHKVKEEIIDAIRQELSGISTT
UniProt Q9H098: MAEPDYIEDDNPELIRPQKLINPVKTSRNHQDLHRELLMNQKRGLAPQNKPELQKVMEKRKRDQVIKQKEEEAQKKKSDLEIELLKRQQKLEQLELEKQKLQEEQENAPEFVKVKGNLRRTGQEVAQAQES
UniProt P43268: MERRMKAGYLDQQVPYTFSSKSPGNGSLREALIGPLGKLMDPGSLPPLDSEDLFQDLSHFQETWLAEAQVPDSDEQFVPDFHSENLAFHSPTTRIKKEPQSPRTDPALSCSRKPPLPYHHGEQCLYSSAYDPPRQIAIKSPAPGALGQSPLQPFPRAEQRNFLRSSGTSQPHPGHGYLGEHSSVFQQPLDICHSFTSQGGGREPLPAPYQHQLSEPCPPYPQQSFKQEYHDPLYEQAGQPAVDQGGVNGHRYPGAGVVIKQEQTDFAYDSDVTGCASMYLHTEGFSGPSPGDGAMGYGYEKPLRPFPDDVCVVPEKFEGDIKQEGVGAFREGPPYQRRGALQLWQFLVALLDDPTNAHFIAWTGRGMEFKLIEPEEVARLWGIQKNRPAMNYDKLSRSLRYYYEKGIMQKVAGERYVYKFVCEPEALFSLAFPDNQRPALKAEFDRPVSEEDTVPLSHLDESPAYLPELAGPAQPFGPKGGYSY

Experiments:
Assay in all cases: log2 fold change, soluble protein after heating vs DMSO (PISA); higher = thermal stabilisation; K562 lysate, 10 uM; active = over 0.2 and 3.5 SD of the protein, either way, in both replicates (recomputed)
erlotinib = compound: C#Cc1cccc(Nc2ncnc3cc(OCCOC)c(OCCOC)cc23)c1 [erlotinib]
In short: (§1)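 Soluble protein was defined as the supernatant remaining after 21,000xg for 90 min, following pooling of heated aliquots and adjustment to 0.5% NP-40 at 4°C. Before that, crude K562 extract at 1 mg/mL protein in PBS pH 7.4 with 1 mM MgCl2 was treated with 10 μM compound for 30 min and heated for 3 min across 48°C-58°C. Quantification used TMTpro 16plex LC-MS/MS with channel sums equalised, and values are log-two fold changes in thermal stability relative to solvent controls from duplicates.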

[1] = compound: C/C(=N\NC(=O)C1=CC(=CC=C1)S(=O)(=O)N2CCOCC2)/C3=C(C=CC(=C3)Cl)O
In short: as §1

[2] = compound: C1=CC(=CC=C1C2=NC3=C(N2)C=C(C=C3)C(=O)N)OC4=CC=C(C=C4)Cl
In short: as §1

[3] = compound: C1=CC2=C(C=CC(=C2)/C=C\3/C(=O)NC(=NCC4=CC=CS4)S3)N=C1
In short: as §1

[4] = compound: C1=CC2=NC=CN=C2C=C1/C=C/3\C(=O)NC(=O)S3
In short: as §1

[5] = compound: C1=CC=C(C=C1)C2=NC(=C(N2)C3=CC=NC=C3)C4=CC(=C(C=C4)Cl)O
In short: as §1

[6] = compound: C1=CC=C2C(=C1)C3=NNC4=CC=CC(=C43)C2=O
In short: as §1

[7] = compound: C1CCN(C1)C(=O)NC2=CC=CC(=C2)NC3=NC=C(C(=N3)NCCC4=CN=CN4)Br
In short: as §1

[8] = compound: C1CN(CCC1(CC2=CC=C(C=C2)Cl)N)C3=NC=NC4=C3C=CN4
In short: as §1

IRAK-1-4 Inhibitor I = compound: C1COCCN1CCN2C3=CC=CC=C3N=C2NC(=O)C4=CC(=CC=C4)[N+](=O)[O-] [IRAK-1-4 Inhibitor I]
In short: as §1

ibrutinib = compound: C=CC(=O)N1CCC[C@@H](n2nc(-c3ccc(Oc4ccccc4)cc3)c3c(N)ncnc32)C1 [ibrutinib]
In short: as §1

[9] = compound: CC(=O)c1cnc2ccc(-c3cc(Cl)c(O)c(Cl)c3)nc2c1N[C@H]1CC[C@H](CN(C)C)CC1
In short: as §1

ralimetinib = compound: CC(C)(C)Cn1c(N)nc2ccc(-c3[nH]c(C(C)(C)C)nc3-c3ccc(F)cc3)nc21 [ralimetinib]
In short: as §1

[10] = compound: CC(C)(O)CC(=O)NCCn1ccc2ncnc(Nc3ccc(Oc4cccc(C(F)(F)F)c4)c(Cl)c3)c21
In short: as §1

[11] = compound: CC(C)C1=C2N=C(C=C(N2N=C1)NCC3=CC=CC=C3)NCCCCCCN
In short: as §1

[12] = compound: CC1=C(C(CC(=O)N1)C2=CC=C(C=C2)C(F)(F)F)C(=O)NC3=C(C=C4C(=C3)C=NN4)F
In short: as §1

[13] = compound: CC1=C(C2=C(C=C1)C(=O)C3=CC=CC=C3N2CCCN)C
In short: as §1

[14] = compound: CC1=C(C=C(C=C1)NC(=O)C2=CC(=CC=C2)C(C)(C)C#N)NC3=CC4=C(C=C3)N=CN(C4=O)C
In short: as §1

[15] = compound: CC1=C(C=C(C=C1)NC(=O)C2=CC(=CC=C2)N(C)C)NC(=O)C3=CC=C(C=C3)O
In short: as §1

[16] = compound: CC1=CC=C(C=C1)SC2=C3C=C(SC3=CN=C2)C(=O)N
In short: as §1

Measured: log2 fold change

FAM83D (UniProt Q9H4H8)
inactive: erlotinib 0.033 | [1] 0.013 | [2] -0.049 | [3] 0.006 | [4] 0 | [5] -0.009 | [6] -0.003 | [7] -0.005 | [8] -0.004 | IRAK-1-4 Inhibitor I 0.019 | ibrutinib 0.028 | [9] 0.031 | ralimetinib 0.041 | [10] -0.018 | [11] 0.013 | [12] 0.038 | [13] -0.098 | [14] -0.032 | [15] 0.031 | [16] 0.017

FABP5 (UniProt Q01469)
inactive: erlotinib -0.049 | [1] 0.045 | [2] -0.039 | [3] -0.039 | [4] 0.04 | [5] 0.029 | [6] 0.027 | [7] 0.052 | [8] 0 | IRAK-1-4 Inhibitor I -0.015 | ibrutinib -0.026 | [9] -0.039 | ralimetinib 0.043 | [10] 0.177 | [11] -0.033 | [12] 0.107 | [13] 0.074 | [14] 0.079 | [15] -0.022 | [16] -0.017

FAM49B (UniProt Q9NUQ9)
inactive: erlotinib -0.002 | [1] 0.028 | [2] -0.005 | [3] -0.003 | [4] -0.005 | [5] -0.007 | [6] 0.015 | [7] -0.009 | [8] 0.002 | IRAK-1-4 Inhibitor I -0.004 | ibrutinib 0.017 | [9] 0 | ralimetinib -0.005 | [10] -0.01 | [11] -0.03 | [12] -0.002 | [13] -0.019 | [14] 0.04 | [15] -0.017 | [16] 0.028

FAHD2B (UniProt Q6P2I3)
inactive: erlotinib -0.14 | [1] -0.045 | [2] 0.219 | [3] -0.06 | [4] 0.06 | [5] 0.093 | [6] -0.056 | [7] -0.144 | [8] 0.243 | IRAK-1-4 Inhibitor I 0.043 | ibrutinib -0.036 | [9] -0.044 | ralimetinib 0.068 | [10] -0.081 | [11] -0.101 | [12] 0.009 | [13] 0.1 | [14] -0.078 | [15] 0.093 | [16] -0.074

FAM76A isoform 3 (UniProt Q8TAV0)
inactive: erlotinib 0.043 | [1] -0.077 | [2] -0.011 | [3] -0.068 | [4] -0.09 | [5] -0.059 | [6] 0.041 | [7] 0.021 | [8] -0.008 | IRAK-1-4 Inhibitor I 0.013 | ibrutinib 0.119 | [9] 0.005 | ralimetinib 0.006 | [10] -0.153 | [11] -0.115 | [12] -0.033 | [13] -0.05 | [14] 0.061 | [15] 0 | [16] 0.023

EXOSC8 (UniProt Q96B26)
inactive: erlotinib 0 | [1] -0.015 | [2] 0.014 | [3] 0.023 | [4] 0.011 | [5] 0.002 | [6] 0.095 | [7] -0.008 | [8] -0.009 | IRAK-1-4 Inhibitor I -0.02 | ibrutinib -0.038 | [9] -0.005 | ralimetinib 0.035 | [10] -0.02 | [11] 0.008 | [12] -0.036 | [13] 0.006 | [14] 0.05 | [15] 0.021 | [16] -0.02

FAM207A (UniProt Q9NSI2)
inactive: erlotinib -0.028 | [1] -0.014 | [2] 0.049 | [3] -0.02 | [4] -0.041 | [5] -0.005 | [6] -0.024 | [7] -0.053 | [8] 0.035 | IRAK-1-4 Inhibitor I 0.013 | ibrutinib 0.014 | [9] 0.027 | ralimetinib 0.003 | [10] -0.03 | [11] -0.042 | [12] 0.015 | [13] 0.006 | [14] -0.009 | [15] -0.005 | [16] 0.028

FAM162A (UniProt Q96A26)
inactive: erlotinib -0.025 | [1] 0.054 | [2] -0.07 | [3] -0.014 | [4] 0.036 | [5] 0.001 | [6] 0.056 | [7] 0.033 | [8] -0.026 | IRAK-1-4 Inhibitor I -0.019 | ibrutinib 0.065 | [9] 0.073 | ralimetinib 0.007 | [10] 0.042 | [11] -0.016 | [12] 0.028 | [13] -0.006 | [14] -0.02 | [15] 0.002 | [16] 0.044

EXOC5 (UniProt O00471)
inactive: erlotinib 0.022 | [1] -0.021 | [2] -0.041 | [3] 0.033 | [4] -0.006 | [5] -0.013 | [6] -0.016 | [7] 0.005 | [8] 0.006 | IRAK-1-4 Inhibitor I -0.011 | ibrutinib -0.015 | [9] 0.012 | ralimetinib 0.04 | [10] -0.003 | [11] -0.016 | [12] 0.008 | [13] 0.003 | [14] -0.024 | [15] 0.041 | [16] -0.013

FADS3 (UniProt Q9Y5Q0)
inactive: erlotinib 0.075 | [1] -0.355 | [2] -0.052 | [3] 0.118 | [4] 0.016 | [5] -0.072 | [6] -0.124 | [7] 0.109 | [8] -0.291 | IRAK-1-4 Inhibitor I -0.097 | ibrutinib 0.11 | [9] -0.02 | ralimetinib -0.123 | [10] 0.075 | [11] -0.051 | [12] 0.074 | [13] -0.49 | [14] 0.015 | [15] 0.017 | [16] -0.017

FAHD1 (UniProt Q6P587)
inactive: erlotinib -0.033 | [1] 0.007 | [2] 0.098 | [3] -0.046 | [4] 0.031 | [5] 0.032 | [6] -0.067 | [7] -0.017 | [8] -0.197 | IRAK-1-4 Inhibitor I 0.184 | ibrutinib 0.056 | [9] 0 | ralimetinib -0.111 | [10] -0.154 | [11] -0.036 | [12] -0.011 | [13] -0.095 | [14] 0.067 | [15] -0.093 | [16] -0.006

FADD (UniProt Q13158)
inactive: erlotinib -0.008 | [1] 0.034 | [2] -0.031 | [3] -0.063 | [4] -0.005 | [5] -0.05 | [6] 0.073 | [7] 0.022 | [8] -0.041 | IRAK-1-4 Inhibitor I -0.005 | ibrutinib -0.01 | [9] 0.01 | ralimetinib 0.032 | [10] 0.021 | [11] 0.044 | [12] 0.073 | [13] 0.007 | [14] 0.009 | [15] 0.006 | [16] 0.007

FAF1 (UniProt Q9UNN5)
inactive: erlotinib -0.006 | [1] 0.01 | [2] 0 | [3] 0.005 | [4] -0.002 | [5] 0.003 | [6] 0.007 | [7] 0.031 | [8] -0.003 | IRAK-1-4 Inhibitor I -0.006 | ibrutinib 0.028 | [9] -0.012 | ralimetinib -0.014 | [10] -0.013 | [11] -0.013 | [12] -0.014 | [13] -0.02 | [14] -0.01 | [15] 0.016 | [16] -0.024

EVL isoform 2 (UniProt Q9UI08)
inactive: erlotinib -0.024 | [1] 0.068 | [2] 0.096 | [3] -0.148 | [4] 0 | [5] -0.016 | [6] 0.032 | [7] -0.025 | [8] 0 | IRAK-1-4 Inhibitor I -0.118 | ibrutinib 0.114 | [9] -0.011 | ralimetinib -0.018 | [10] -0.069 | [11] -0.068 | [12] 0.144 | [13] 0.154 | [14] -0.047 | [15] 0.192 | [16] -0.009

Two entries picked at random from the list so far:
EVL isoform 2 (UniProt Q9UI08)
inactive: erlotinib -0.024 | [1] 0.068 | [2] 0.096 | [3] -0.148 | [4] 0 | [5] -0.016 | [6] 0.032 | [7] -0.025 | [8] 0 | IRAK-1-4 Inhibitor I -0.118 | ibrutinib 0.114 | [9] -0.011 | ralimetinib -0.018 | [10] -0.069 | [11] -0.068 | [12] 0.144 | [13] 0.154 | [14] -0.047 | [15] 0.192 | [16] -0.009

FADS3 (UniProt Q9Y5Q0)
inactive: erlotinib 0.075 | [1] -0.355 | [2] -0.052 | [3] 0.118 | [4] 0.016 | [5] -0.072 | [6] -0.124 | [7] 0.109 | [8] -0.291 | IRAK-1-4 Inhibitor I -0.097 | ibrutinib 0.11 | [9] -0.02 | ralimetinib -0.123 | [10] 0.075 | [11] -0.051 | [12] 0.074 | [13] -0.49 | [14] 0.015 | [15] 0.017 | [16] -0.017

Further records:

FAM107B isoform 2 (UniProt Q9H098)
inactive: erlotinib 0.033 | [1] 0.064 | [2] 0.077 | [3] 0.024 | [4] -0.026 | [5] 0.064 | [6] -0.11 | [7] -0.005 | [8] 0.046 | IRAK-1-4 Inhibitor I -0.023 | ibrutinib -0.075 | [9] 0.035 | ralimetinib 0.033 | [10] -0.074 | [11] 0.008 | [12] -0.032 | [13] -0.013 | [14] 0 | [15] 0.022 | [16] 0.003

ETV4 (UniProt P43268)
inactive: erlotinib 0.038 | [1] 0.371 | [2] 0.027 | [3] 0.015 | [5] -0.032 | [6] -0.027 | [7] 0.033 | [8] 0.25 | IRAK-1-4 Inhibitor I 0.118 | ralimetinib 0.12 | [10] -0.007 | [11] 0.015 | [12] 0.099 | [14] -0.05 | [15] -0.014
